The values that follow come from publication PMC9037475.

By UniProt entry, the sequences of proteins in these tests, tags left out. Where a name states a change or a piece, a line headed by the entry shows the natural chain unless it says otherwise.
UniProt P01106: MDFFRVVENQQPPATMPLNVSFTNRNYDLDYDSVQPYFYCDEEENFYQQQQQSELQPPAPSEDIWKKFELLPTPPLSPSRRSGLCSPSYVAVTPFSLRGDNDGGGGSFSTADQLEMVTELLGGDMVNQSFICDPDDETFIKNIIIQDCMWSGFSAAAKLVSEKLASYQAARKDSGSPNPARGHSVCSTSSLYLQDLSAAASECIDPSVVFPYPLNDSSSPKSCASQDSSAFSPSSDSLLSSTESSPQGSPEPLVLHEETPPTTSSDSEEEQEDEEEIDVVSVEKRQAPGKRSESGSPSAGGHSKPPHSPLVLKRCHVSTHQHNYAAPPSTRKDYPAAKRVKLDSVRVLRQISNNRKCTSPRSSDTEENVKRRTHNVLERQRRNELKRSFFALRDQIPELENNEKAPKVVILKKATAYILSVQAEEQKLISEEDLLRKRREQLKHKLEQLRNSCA
UniProt Q969H0: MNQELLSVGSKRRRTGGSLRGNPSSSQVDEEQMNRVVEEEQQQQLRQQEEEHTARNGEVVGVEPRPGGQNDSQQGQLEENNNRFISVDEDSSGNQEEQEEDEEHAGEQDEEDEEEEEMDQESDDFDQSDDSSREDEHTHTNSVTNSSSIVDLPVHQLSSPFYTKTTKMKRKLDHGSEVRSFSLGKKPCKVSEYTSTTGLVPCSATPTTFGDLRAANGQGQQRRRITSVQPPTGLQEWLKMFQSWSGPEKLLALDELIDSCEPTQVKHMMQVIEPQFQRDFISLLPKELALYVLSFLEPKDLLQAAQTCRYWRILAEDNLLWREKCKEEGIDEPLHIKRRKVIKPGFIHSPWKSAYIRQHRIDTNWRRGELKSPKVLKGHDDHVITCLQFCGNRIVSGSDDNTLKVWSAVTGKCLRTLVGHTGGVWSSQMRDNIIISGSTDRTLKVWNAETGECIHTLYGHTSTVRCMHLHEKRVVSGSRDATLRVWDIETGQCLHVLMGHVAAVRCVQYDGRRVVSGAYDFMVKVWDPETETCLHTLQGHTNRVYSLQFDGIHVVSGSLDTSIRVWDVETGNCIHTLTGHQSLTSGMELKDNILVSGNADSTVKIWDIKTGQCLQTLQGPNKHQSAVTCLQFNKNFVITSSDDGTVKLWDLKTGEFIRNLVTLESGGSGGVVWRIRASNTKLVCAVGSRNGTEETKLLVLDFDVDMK

What all share (assay): co-IP; U2OS cells transfected with Flag-Fbxl8 or Flag-Fbxw7 along with V5-c-myc or phosphomutants, MG132 (20 μM) for 6 hours; precipitated with anti-V5 beads; western blot
(In general: Immunoblotting shows a protein as a band on a membrane.)

Assay [1] deals with V5 tagged wild-type c-myc (pD40-His/V5-c-Myc WT) (UniProt P01106).
Assay [2] concerns the target V5 tagged c-myc-S62A (pD40-His/V5-c-MycS62A).
The target in assay [3] is V5 tagged c-myc-T58A (pD40-His/V5-c-MycT58A).

These are yes or no findings as the source states them, for the method shown. Binding seen in cells or lysates may run through a third protein. Binding can be weak; no strength is given. Where a sequence is shown, tags or fusion partners need not be part of it.

In the case of Flag-Fbxw7 (from UniProt Q969H0 1-707), in assay [1], the binding entry is “binds”.

B1: Flag-Fbxl8 (F-box and Leucine Rich Repeat Protein 8), wild type, expressed in U2OS cells (protein, UniProt Q96CD0 1-374)
chain: MAEPGEGLPEEVLALIFRHLSLRDRAAAARVCRAWAAAATCSAVWHDTKISCECELEGMLPPYLSACLDHIHNLRLEFEPSRKPSRRAAIELLMVLAGRAPGLRGLRLECRGEKPLFDAGRDVLEAVHAVCGAASQLRHLDLRRLSFTLDDALVLQAARSCPELHSLFLDNSTLVGSVGPGSVLELLEACPRLRALGLHLASLSHAILEALAAPDRAPFALLALRCACPEDARASPLPNEAWVALRRRHPGLAVELELEPALPAESVTRVLQPAVPVAALRLNLSGDTVGPVRFAAHHYAATLCALEVRAAASAELNAALEELAARCAALREVHCFCVVSHSVLDAFRAHCPRLRTYTLKLTREPHPWRPTLVA
With B1, the binding result in assay [2], in assay [3] and in assay [1] was “binds” in each case.
